# Measured values as given in the supplement of paper PMC4604168 (melanoma cell lines).
# The list shows a part of the results. Many values rest on one well or one pass, so single values are uncertain.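 Imaging used 1,536-well plates; nuclei positive for cleaved PARP by antibody were divided by total DNA-stained nuclei to yield the apoptosis fraction. Doses for screening kept most cells viable, and cell lines differ markedly in resting and induced cleaved-PARP levels.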
# Assays:
# Experiment in all cases: cleaved PARP positive nuclei fraction relative to DMSO control; melanoma cells; higher = more apoptosis
# Conditions in all cases: library dose: low library concentration; 72 h
# [1] = test system: COLO792
# [2] = test system: COLO800
# [3] = test system: COLO829
# [4] = test system: G361
# [5] = test system: IPC-298
# [6] = test system: IST-MEL1
# [7] = test system: LB2518-MEL
# [8] = test system: LOXIMVI
Compound,cleaved PARP positive nuclei fraction [1],cleaved PARP positive nuclei fraction [2],cleaved PARP positive nuclei fraction [3],cleaved PARP positive nuclei fraction [4],cleaved PARP positive nuclei fraction [5],cleaved PARP positive nuclei fraction [6],cleaved PARP positive nuclei fraction [7],cleaved PARP positive nuclei fraction [8]
"O=C(Nc1cc(C(F)(F)F)cc(C(F)(F)F)c1)c1cc(Cl)ccc1O + Cc1cc(SCc2sc(-c3ccc(C(F)(F)F)c(F)c3)nc2C)ccc1OCC(=O)O [GW0742] (first compound 0.016 µM, partner dose 2 µM)",117%,61.3%,76.5%,107%,29.8%,132%,52.3%,164%
"CS(=O)(=O)CCNCc1ccc(-c2ccc3ncnc(Nc4ccc(OCc5cccc(F)c5)c(Cl)c4)c3c2)o1 [lapatinib] + Cc1cc(SCc2sc(-c3ccc(C(F)(F)F)c(F)c3)nc2C)ccc1OCC(=O)O [GW0742] (first compound 0.8 µM, partner dose 2 µM)",108%,61.4%,86.6%,68.9%,89.7%,56.2%,54.5%,97.9%
"N#CC[C@H](C1CCCC1)n1cc(-c2ncnc3[nH]ccc23)cn1 [ruxolitinib] + C/C(O)=C(\C#N)C(=O)Nc1cc(Br)ccc1Br [LFM-A13] (first compound 1 µM, partner dose 2 µM)",130%,171%,90%,75.7%,39.5%,128%,25.8%,104%
"NC(=O)c1ccc(N(C(N)=O)c2c(F)cccc2F)nc1-c1ccc(F)cc1F + C/C(O)=C(\C#N)C(=O)Nc1cc(Br)ccc1Br [LFM-A13] (first compound 0.4 µM, partner dose 2 µM)",78.9%,77.8%,97%,61.7%,95.2%,107%,140%,283%
"COc1cc([C@@H]2c3cc4c(cc3[C@@H](O[C@@H]3O[C@@H]5CO[C@@H](C)O[C@H]5[C@H](O)[C@H]3O)[C@H]3COC(=O)[C@H]23)OCO4)cc(OC)c1O [etoposide] + O=C(Oc1ccc([N+](=O)[O-])cc1)N1CCC(C(O)(c2ccc3c(c2)OCO3)c2ccc3c(c2)OCO3)CC1 [JZL184] (first compound 0.02 µM, partner dose 1 µM)",104%,128%,68.8%,106%,101%,118%,232%,101%
"CC[C@]1(O)C[C@H]2CN(CCc3c([nH]c4ccccc34)[C@@](C(=O)OC)(c3cc4c(cc3OC)N(C=O)[C@H]3[C@@](O)(C(=O)OC)[C@H](OC(C)=O)[C@]5(CC)C=CCN6CC[C@]43[C@@H]65)C2)C1 [vincristine] + Cc1cc(SCc2sc(-c3ccc(C(F)(F)F)c(F)c3)nc2C)ccc1OCC(=O)O [GW0742] (first compound 0.0001 µM, partner dose 2 µM)",137%,116%,80.2%,82%,80%,71.8%,49.6%,70.4%
"Cn1c(=O)n(-c2ccc(C(C)(C)C#N)cc2)c2c3cc(-c4cnc5ccccc5c4)ccc3ncc21 + Cc1cc(SCc2sc(-c3ccc(C(F)(F)F)c(F)c3)nc2C)ccc1OCC(=O)O [GW0742] (first compound 0.004 µM, partner dose 2 µM)",123%,65.4%,103%,73.2%,147%,67.9%,67.3%,141%
"Cn1cc(C2=C(c3cn(C4CCN(Cc5ccccn5)CC4)c4ccccc34)C(=O)NC2=O)c2ccccc21 [Enzastaurin] + O=C(Nc1ccccc1)c1cc([N+](=O)[O-])ccc1Cl [GW9662] (first compound 0.8 µM, partner dose 2 µM)",105%,17.6%,53.1%,181%,116%,89%,72.4%,109%
"N.N.[Cl][Pt][Cl] [cisplatin] + C/C(O)=C(\C#N)C(=O)Nc1cc(Br)ccc1Br [LFM-A13] (first compound 1.6 µM, partner dose 2 µM)",46.6%,113%,83.5%,76.8%,142%,46.7%,146%,135%
"CN(c1ncccc1CNc1nc(Nc2ccc3c(c2)CC(=O)N3)ncc1C(F)(F)F)S(C)(=O)=O + Cc1cc(SCc2sc(-c3ccc(C(F)(F)F)c(F)c3)nc2C)ccc1OCC(=O)O [GW0742] (first compound 0.08 µM, partner dose 2 µM)",106%,32.2%,115%,144%,91.6%,71.6%,79.7%,166%
"CC1(C)CCC(c2ccc(Cl)cc2)=C(CN2CCN(c3ccc(C(=O)NS(=O)(=O)c4ccc(N[C@H](CCN5CCOCC5)CSc5ccccc5)c(S(=O)(=O)C(F)(F)F)c4)cc3)CC2)C1 + C/C(O)=C(\C#N)C(=O)Nc1cc(Br)ccc1Br [LFM-A13] (first compound 0.4 µM, partner dose 2 µM)",263%,140%,74.3%,133%,127%,80.8%,159%,130%
"Nc1ccn([C@@H]2O[C@H](CO)[C@@H](O)C2(F)F)c(=O)n1 [gemcitabine] + O=C(Oc1ccc([N+](=O)[O-])cc1)N1CCC(C(O)(c2ccc3c(c2)OCO3)c2ccc3c(c2)OCO3)CC1 [JZL184] (first compound 0.0004 µM, partner dose 1 µM)",202%,244%,207%,131%,64.3%,143%,82.8%,122%
"O=C(O)[C@@H]1[O][Sb](=[O])([O][Sb]2(=[O])[O][C@H]([C@H](O)CO)[C@H](O)[C@H](C(=O)O)[O]2)[O][C@H]([C@H](O)CO)[C@@H]1O (some centres undefined) [stibogluconate] + O=C(Oc1ccc([N+](=O)[O-])cc1)N1CCC(C(O)(c2ccc3c(c2)OCO3)c2ccc3c(c2)OCO3)CC1 [JZL184] (first compound 2 µM, partner dose 1 µM)",83.1%,72.9%,264%,119%,96.1%,184%,74.8%,69.4%
"N.N.[Cl][Pt][Cl] [cisplatin] + COc1ccc2c(c1)CCC1C2CCC2(C)C(NCCCCCCN3C(=O)C=CC3=O)CCC12 [U73122] (first compound 1.6 µM, partner dose 0.4 µM)",83.6%,41.6%,134%,71.9%,72.4%,110%,34.4%,210%
"CCCCCCCCc1ccc(CCC(N)(CO)CO)cc1 [fingolimod] + Cc1cc(SCc2sc(-c3ccc(C(F)(F)F)c(F)c3)nc2C)ccc1OCC(=O)O [GW0742] (first compound 2 µM, partner dose 2 µM)",45%,62.8%,64.9%,109%,95.6%,62%,34%,25.4%
"N.N.[Cl][Pt][Cl] [cisplatin] + COc1cc2ncnc(Nc3ccc(Oc4ccccc4)cc3)c2cc1OC [SrcI1] (first compound 1.6 µM, partner dose 2 µM)",104%,56.6%,61.8%,202%,63.9%,109%,64.3%,106%
"NC(=O)c1ccc(N(C(N)=O)c2c(F)cccc2F)nc1-c1ccc(F)cc1F + Cc1cc(SCc2sc(-c3ccc(C(F)(F)F)c(F)c3)nc2C)ccc1OCC(=O)O [GW0742] (first compound 0.4 µM, partner dose 2 µM)",265%,55.4%,126%,119%,36.1%,98.4%,72%,89.5%
"N.N.[Cl][Pt][Cl] [cisplatin] + COC(=O)c1sccc1S(=O)(=O)Nc1ccc(Nc2ccccc2)cc1OC [GSK0660] (first compound 1.6 µM, partner dose 1 µM)",173%,62.5%,141%,41.3%,90.3%,218%,313%,159%
"Cn1cc(C2=C(c3cn(C4CCN(Cc5ccccn5)CC4)c4ccccc34)C(=O)NC2=O)c2ccccc21 [Enzastaurin] + COc1cc(N2CCC(N3CCN(C)CC3)CC2)ccc1Nc1ncc(Cl)c(Nc2ccccc2S(=O)(=O)C(C)C)n1 [NVP-TAE684] (first compound 0.8 µM, partner dose 0.08 µM)",151%,169%,156%,229%,72.6%,89.8%,64.6%,193%
"NC1(c2ccc(-c3nc4ccn5c(=O)[nH]nc5c4cc3-c3ccccc3)cc2)CCC1 + C/C(O)=C(\C#N)C(=O)Nc1cc(Br)ccc1Br [LFM-A13] (first compound 0.4 µM, partner dose 2 µM)",138%,31.3%,94.4%,79.4%,60.4%,28%,74.2%,119%
"CCCCCCCCCCCCCCCCCCOP(=O)([O-])OC1CC[N+](C)(C)CC1 [Perifosine] + C/C(O)=C(\C#N)C(=O)Nc1cc(Br)ccc1Br [LFM-A13] (first compound 0.4 µM, partner dose 2 µM)",117%,65.3%,572%,139%,149%,110%,74.7%,68.7%
"Clc1ccc(Nc2nnc(Cc3ccncc3)c3ccccc23)cc1 [vatalanib] + C/C(O)=C(\C#N)C(=O)Nc1cc(Br)ccc1Br [LFM-A13] (first compound 2 µM, partner dose 2 µM)",35.4%,79.3%,109%,57.9%,55%,47.7%,90.3%,153%
"N#CC[C@H](C1CCCC1)n1cc(-c2ncnc3[nH]ccc23)cn1 [ruxolitinib] + Cc1cc(SCc2sc(-c3ccc(C(F)(F)F)c(F)c3)nc2C)ccc1OCC(=O)O [GW0742] (first compound 1 µM, partner dose 2 µM)",107%,40%,43.1%,89%,73.4%,91.5%,63.6%,133%

# Four entries from above, as tab-separated lines:
Compound	cleaved PARP positive nuclei fraction [1]	cleaved PARP positive nuclei fraction [2]	cleaved PARP positive nuclei fraction [3]	cleaved PARP positive nuclei fraction [4]	cleaved PARP positive nuclei fraction [5]	cleaved PARP positive nuclei fraction [6]	cleaved PARP positive nuclei fraction [7]	cleaved PARP positive nuclei fraction [8]
CCCCCCCCc1ccc(CCC(N)(CO)CO)cc1 [fingolimod] + Cc1cc(SCc2sc(-c3ccc(C(F)(F)F)c(F)c3)nc2C)ccc1OCC(=O)O [GW0742] (first compound 2 µM, partner dose 2 µM)	45%	62.8%	64.9%	109%	95.6%	62%	34%	25.4%
N.N.[Cl][Pt][Cl] [cisplatin] + COc1cc2ncnc(Nc3ccc(Oc4ccccc4)cc3)c2cc1OC [SrcI1] (first compound 1.6 µM, partner dose 2 µM)	104%	56.6%	61.8%	202%	63.9%	109%	64.3%	106%
NC(=O)c1ccc(N(C(N)=O)c2c(F)cccc2F)nc1-c1ccc(F)cc1F + Cc1cc(SCc2sc(-c3ccc(C(F)(F)F)c(F)c3)nc2C)ccc1OCC(=O)O [GW0742] (first compound 0.4 µM, partner dose 2 µM)	265%	55.4%	126%	119%	36.1%	98.4%	72%	89.5%
N.N.[Cl][Pt][Cl] [cisplatin] + COC(=O)c1sccc1S(=O)(=O)Nc1ccc(Nc2ccccc2)cc1OC [GSK0660] (first compound 1.6 µM, partner dose 1 µM)	173%	62.5%	141%	41.3%	90.3%	218%	313%	159%
